# Assay results published in PubChem BioAssay AID1671190 (National Center for Advancing Translational Sciences (NCATS), 2021).
# Amino acid sequences for entries named in this document (tags omitted). A change or cut given only in a name is not applied to a line headed by its entry.
# UniProt P18054: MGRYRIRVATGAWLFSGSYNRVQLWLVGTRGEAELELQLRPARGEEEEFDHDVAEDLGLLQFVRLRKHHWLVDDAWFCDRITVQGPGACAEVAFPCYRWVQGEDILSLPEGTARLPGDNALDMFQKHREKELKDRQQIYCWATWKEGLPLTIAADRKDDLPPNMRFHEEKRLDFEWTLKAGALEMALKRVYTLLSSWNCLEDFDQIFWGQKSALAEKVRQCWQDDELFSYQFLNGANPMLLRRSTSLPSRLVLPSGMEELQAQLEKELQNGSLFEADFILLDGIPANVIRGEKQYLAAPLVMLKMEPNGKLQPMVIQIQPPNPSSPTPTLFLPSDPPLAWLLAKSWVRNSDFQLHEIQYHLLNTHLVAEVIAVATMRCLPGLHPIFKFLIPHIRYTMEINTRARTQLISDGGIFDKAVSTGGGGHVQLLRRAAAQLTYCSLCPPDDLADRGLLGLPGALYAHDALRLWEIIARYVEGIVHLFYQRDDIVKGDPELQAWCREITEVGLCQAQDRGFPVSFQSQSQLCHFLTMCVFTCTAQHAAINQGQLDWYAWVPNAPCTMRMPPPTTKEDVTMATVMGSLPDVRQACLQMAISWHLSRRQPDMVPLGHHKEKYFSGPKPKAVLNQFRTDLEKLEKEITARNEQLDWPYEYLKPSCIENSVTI
# Among all 580,000 compounds or so, about 6,100 (1.1%) were called active. Inconclusive results, whose numbers are uncertain, are shown with a selection of clear calls. Calls come from the whole dose curve; as a rule, active = well fitted inhibition curve with a large enough effect; inconclusive = small, poorly fitted or top-dose-only effect, or another doubt; inactive = no such curve, though single readings can be large or run the other way. Potencies beside an inconclusive call are fits to weak or partial responses and may not hold up.
# Target: Polyunsaturated fatty acid lipoxygenase ALOX12 (Homo sapiens) (UniProt P18054)
# Assay: Primary qHTS assay for inhibitors of human arachidonate 12S-lipoxygenase (ALOX12): Round 2
# Details: purified 12hLO, xylenol orange hydroperoxide absorbance; activity change, negative = inhibition: at 108 µM (top of the series) unless noted
# Summary of the method: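 Purified human 12hLO (150 nM final) in 25 mM Hepes, 0.01% Triton X-100, pH 7.0 was preincubated 15 min at room temperature with compound. Then 40 uM arachidonic acid was added, 30 min. Hydroperoxide was read by Fe-XO absorbance ratio 573/405 nm.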
# % is set by controls: 0 for no effect and ±100 for the full control effect; potency is the fitted concentration of half-maximal effect.
Structure (SMILES),Potency,"activity change, negative = inhibition"
CC1CCN(C(=O)c2cc3c(ccc4ccccc43)o2)CC1,active: 44.7 µM,–
CCOC(=O)c1cnc2c(OC)cccc2c1Nc1ccccc1,"inconclusive: 15.8 µM [inhibitor, partial curve, poor fit]",–
COc1ccccc1C#Cc1ccc2c(=O)c3ccccc3n(C)c2c1,–,inactive: -2.69%
C=C1CCC[C@]2(C)C[C@H]3OC(=O)C(CNC(C)CC)[C@H]3CC12 (stereo partly drawn),–,inactive: -24.1%
COc1ccc2oc(=O)cc(CN3CCN(Cc4ccc(F)cc4)CC3)c2c1,"inconclusive: 6.31 µM [inhibitor, full curve, poor fit]",–
CCOc1cc(C2C(C(=O)Nc3ccccc3)=C(C)Nc3ncnn32)cc(Br)c1O (stereo not drawn),"inconclusive: 56.2 µM [inhibitor, partial curve]",–
N#Cc1ccccc1NC(=O)CN(Cc1ccccc1)Cc1ccccc1,–,inactive: -3.26%
COc1ccc(NS(=O)(=O)c2cccc(-c3n[nH]c(=S)n3Cc3ccccc3)c2)cc1,active: 31.6 µM,–
N#CC1=C(N)C(C#N)(C#N)[C@H](c2ccsc2)[C@H]2COCC=C12,"inconclusive: 3.55 µM [inhibitor, full curve, poor fit]",–
COc1cccc(-n2nc(C(N)=O)c(O)cc2=O)c1,"inconclusive: 89.1 µM [inhibitor, partial curve, poor fit]",–
O=C(NC(Cc1cc(=O)[nH]c2ccccc12)C(=O)O)c1ccc(Cl)cc1 (stereo not drawn),"inconclusive: 24.3 µM [inhibitor, partial curve, poor fit]",–
C[C@H](CO)N1C[C@H](C)[C@@H](CN(C)Cc2ccc(Cl)c(Cl)c2)Oc2c(NC(=O)c3ccncc3)cccc2C1=O,–,inactive: 15.5%
CC(C)C[C@H](NC(=O)c1cccc2c1-c1ccccc1C2=O)C(=O)O,–,inactive: -20.9%
COc1ccc(N2C(=O)CCS2(=O)=O)cc1S(=O)(=O)N1CCCc2ccccc21,"inconclusive: 79.4 µM [inhibitor, partial curve, poor fit]",–
CC(C)c1ccccc1NC(=S)NC1CCCCC1,"inconclusive: 44.7 µM [inhibitor, partial curve, poor fit]",–
COc1cc2c(cc1OCc1ccccc1)-c1nnc(-c3ccccc3)n1C(C)(C)C2,–,inactive: -2.28%
COC(=O)c1cc(C)c(C)cc1NC1OC(CO)C(O)C1O (stereo not drawn),"inconclusive: 39.8 µM [inhibitor, partial curve, poor fit]",–
CC1=C[C@@H](CN2CCN(C)CC2)[C@H](C(C)C)C[C@H]1Cc1nnc(-c2ccc(N(C)C)cc2)o1,–,inactive: 16%
CC1=NOC(=O)/C1=C\c1ccc(-c2ccc(Cl)cc2Cl)o1,active: 15.8 µM,–
Cc1ccc(NC(=O)Cn2c(CCC(=O)O)ccc2-c2cccs2)cc1Cl,"inconclusive: 50.1 µM [inhibitor, partial curve, poor fit]",–
CSc1nc2ccc3nc(NC(=O)C4COc5ccccc5O4)sc3c2s1 (stereo not drawn),"inconclusive: 44.7 µM [inhibitor, partial curve, poor fit]",–
CCOC(=O)N1CCN(C(=O)CNCc2cccs2)CC1,"inconclusive: 0.282 µM [inhibitor, full curve, poor fit]",–
CS(=O)(=O)Nc1ccc(-c2csc(N3CCCCC3)n2)cc1,"inconclusive: 12.6 µM [inhibitor, partial curve, poor fit]",–

Structure (SMILES),Potency,"activity change, negative = inhibition"
O=C(Nc1nnc(C2CC2)s1)C1CC(=O)N(c2ccc3c(c2)OCCO3)C1 (stereo not drawn),"inconclusive: 44.7 µM [inhibitor, partial curve, poor fit]",–
O=C(NC1CCCCC1)N1CCC(c2nnc3n2CCNC3)CC1,active: 12.6 µM,–
COc1ccc(N(CC(=O)NCc2ccc(Cl)cc2)S(=O)(=O)c2c(C)nn(C)c2C)cc1,active: 39.8 µM,–
COc1ccccc1CN1CCN(S(=O)(=O)c2ccccc2)CC1,"inconclusive: 2 µM [inhibitor, full curve, poor fit]",–
Cc1ccc(NC(=O)Cn2nc(-c3ccco3)ccc2=O)cc1,"inconclusive: 25.1 µM [inhibitor, partial curve, poor fit]",–
N#CC1(NC(=O)CSc2cccc3cccnc23)CCCCCC1,"inconclusive: 44.7 µM [inhibitor, partial curve, poor fit]",–
CC(C)C[C@@H]1CC2=C(C(=O)OC(C)(C)O2)[C@H](c2ccc(Cl)cc2)O1,–,inactive: -137%
O=C1c2ccccc2CN1C1CCN(Cc2ccc(C(F)(F)F)cc2)CC1,"inconclusive: 89.1 µM [inhibitor, single point]",–
Cc1nc(COC(=O)c2cc(O)c3ccccc3c2O)cs1,"inconclusive: 2.51 µM [inhibitor, full curve, poor fit]",–
O=[N+]([O-])c1ccc(/C=N/Nc2ccc3ccccc3c2)o1,active: 10 µM,–
O=C(CN(Cc1ccccc1)S(=O)(=O)c1ccccc1)N/N=C/c1ccccc1[N+](=O)[O-],–,inactive: 3.38%
COC(=O)c1sc(-c2ccccc2)cc1NC(=O)c1ccc(OC)cc1,–,inactive: 0.176%
CCOCCCN(C(=O)c1snc(C(N)=O)c1N)C(C(=O)NCCC(C)C)c1ccc(F)cc1 (stereo not drawn),"inconclusive: 112 µM [inhibitor, partial curve, poor fit]",–
Cc1nn2c(=O)cc(CSCC(=O)Nc3ccccc3F)nc2s1,–,inactive: -0.178%
Cc1ccc(C)c(N2CCN(C(=O)C3CCN(S(=O)(=O)c4ccc5[nH]c(=O)oc5c4)CC3)CC2)c1,"inconclusive: 126 µM [inhibitor, partial curve, poor fit]",–
CCCC1CCC(c2ccc(C(N)=O)cc2)CC1 (stereo not drawn),–,inactive: 3.74%
C=C(C)CNC(=S)NNC(=O)CCn1c2ccccc2c2ccccc21,"inconclusive: 44.7 µM [inhibitor, partial curve, poor fit]",–
CCCCCCCCCCCCCCCCN1CCCC1,"inconclusive: 44.7 µM [inhibitor, partial curve, poor fit]",–
Cc1ccc(N(CC(=O)NCC2CCCO2)S(=O)(=O)c2ccc(C)cc2)cc1 (stereo not drawn),–,inactive: -24%
CCCCCCc1c(C)c2c(cc(C)c3c(C)c(C)oc32)oc1=O,"inconclusive: 141 µM [inhibitor, single point]",–
Cc1ccc(OCC(=O)c2c(O)c3ccccc3oc2=O)cc1C,"inconclusive: 28.2 µM [inhibitor, partial curve, poor fit]",–
O=C(O)c1ccc(Sc2nnnn2-c2ccccc2)c([N+](=O)[O-])c1,"inconclusive: 39.8 µM [inhibitor, partial curve, poor fit]",–
CN1CC2(CCN(C(=O)c3cccnc3N(C)C3CCCCC3)CC2)OC1=O,–,inactive: 7.09%

Structure (SMILES),Potency,"activity change, negative = inhibition"
Cc1ccccc1CNC(=O)COc1ccc(-c2nc(C(C)C)no2)cc1,–,inactive: -4.63%
CC1CCCN(CCS(=O)c2ccccc2)C1 (stereo not drawn),"inconclusive: 44.7 µM [inhibitor, partial curve]",–
CC(Sc1ccc(F)cc1)C(=O)NC1(C#N)CCCCC1 (stereo not drawn),"inconclusive: 39.8 µM [inhibitor, single point]",–
O=C(NC1CCCC1)C(c1ccco1)N(C(=O)c1ccco1)c1ccccc1 (stereo not drawn),–,inactive: -13.5%
CNC(=O)[C@@H](CC(C)C)N1CCC[C@H]1C(=O)N1CCN(C)CC1,"inconclusive: 14.1 µM [inhibitor, full curve]",–
COCCN(CCOC)S(=O)(=O)c1ccc(C(=O)Nc2nnc(CSC)o2)cc1,–,inactive: 0.326%
CCc1ccccc1NC(=O)Cn1cnc2c1c(=O)n(C)c(=O)n2C,"inconclusive: 63.1 µM [inhibitor, partial curve, poor fit]",–
C=CCc1ccc(OCC(O)COc2ccc(CC=C)cc2OC)c(OC)c1,"inconclusive: 10 µM [inhibitor, full curve, poor fit]",–
O=C(O)COCCOCC(=O)O,"inconclusive: 1.12 µM [inhibitor, full curve]",–
Cc1cc2c(c(=O)n(-c3ccc(F)cc3)c(=O)n2CC(=O)Nc2ccc3c(c2)OCO3)n1C,"inconclusive: 89.1 µM [inhibitor, single point]",–
CCOc1nc(NC(=O)NS(=O)(=O)c2cccc(Cl)c2)nc(-c2ccccc2)n1,–,inactive: 8.13%
CCOC(=O)c1oc2ccc(CNC(C)(C)C)c(Cl)c2c1C,"inconclusive: 5.01 µM [inhibitor, full curve, poor fit]",–
COC(=O)c1cc2oc3ccccc3c2n1CC(=O)Nc1ccc(OC)c(OC)c1,–,inconclusive: -32.2% [inhibitor]
O=C(Nc1cc(F)ccc1F)c1ccccc1-c1ccccc1,–,inactive: 14.1%
CN(C)CCCOC(=O)c1cc(C(C)(C)C)cc(C(C)(C)C)c1,"inconclusive: 35.5 µM [inhibitor, partial curve, poor fit]",–
O=C(Nc1ccc(Cl)cc1)c1cc(S(=O)(=O)N2CCCCC2)ccc1N1CCOCC1,"inconclusive: 50.1 µM [inhibitor, partial curve, poor fit]",–
COc1ccc(OC)c(CNC(=O)c2ccc(Sc3ccc(Cl)cc3)c(NC(C)=O)c2)c1,"inconclusive: 56.2 µM [inhibitor, partial curve, poor fit]",–
O=C(NCCc1ccccc1)c1ccc(Cn2c(=O)c3cccn3c3cccnc32)cc1,"inconclusive: 79.4 µM [inhibitor, partial curve, poor fit]",–
O=C(COC(=O)COc1ccc(Br)cc1)Nc1ncc(C(F)(F)F)cc1Cl,"inconclusive: 14.1 µM [inhibitor, full curve, poor fit]",–
CC1(C(=O)NCCCN2CCCC2=O)CCCCC(=O)N1 (stereo not drawn),–,inactive: 13.2%
CC(=O)CCc1oc2ccc(C)cc2c1-c1ccc(C)o1,"inconclusive: 50.1 µM [inhibitor, partial curve, poor fit]",–

# Look-ups from above.
# In activity change, negative = inhibition, CC1=C[C@@H](CN2CCN(C)CC2)[C@H](C(C)C)C[C@H]1Cc1nnc(-c2ccc(N(C)C)cc2)o1 is entered as inactive: 16%
# In Potency, C=CCc1ccc(OCC(O)COc2ccc(CC=C)cc2OC)c(OC)c1 is entered as inconclusive: 10 µM [inhibitor, full curve, poor fit]
# In activity change, negative = inhibition, CN1CC2(CCN(C(=O)c3cccnc3N(C)C3CCCCC3)CC2)OC1=O is entered as inactive: 7.09%
# In Potency, O=C(Nc1nnc(C2CC2)s1)C1CC(=O)N(c2ccc3c(c2)OCCO3)C1 (stereo not drawn) is entered as inconclusive: 44.7 µM [inhibitor, partial curve, poor fit]
